No constants are given. Whether binding was seen depends on the method and setting. Binding can be weak; no strength is given.
Target: N-terminally His6-tagged human IDO1 (indoleamine 2,3-dioxygenase 1), purified apo-IDO1 (human) (UniProt P14902)
Experiment: fluorescence polarisation; Alexa Fluor 488-labelled IDO1 at 100 nM titrated with GAPDH; room temperature; 40 mM EPPS, 150 mM NaCl, 10% glycerol, pH 7.6; both purified

Amino acid sequences for entries named in this document (tags omitted). A change or cut given only in a name is not applied to a line headed by its entry.
UniProt P14902: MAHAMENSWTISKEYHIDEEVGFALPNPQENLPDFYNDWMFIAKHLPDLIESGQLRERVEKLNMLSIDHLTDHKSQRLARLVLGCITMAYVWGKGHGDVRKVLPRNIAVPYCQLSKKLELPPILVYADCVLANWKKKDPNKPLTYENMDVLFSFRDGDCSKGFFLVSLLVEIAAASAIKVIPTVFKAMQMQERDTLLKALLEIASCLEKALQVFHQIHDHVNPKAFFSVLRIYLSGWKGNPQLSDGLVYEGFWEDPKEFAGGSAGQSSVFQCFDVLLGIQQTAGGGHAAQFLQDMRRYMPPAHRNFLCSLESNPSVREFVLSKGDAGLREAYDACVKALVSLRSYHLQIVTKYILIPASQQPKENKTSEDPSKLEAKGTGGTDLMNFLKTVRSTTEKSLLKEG
UniProt P04406: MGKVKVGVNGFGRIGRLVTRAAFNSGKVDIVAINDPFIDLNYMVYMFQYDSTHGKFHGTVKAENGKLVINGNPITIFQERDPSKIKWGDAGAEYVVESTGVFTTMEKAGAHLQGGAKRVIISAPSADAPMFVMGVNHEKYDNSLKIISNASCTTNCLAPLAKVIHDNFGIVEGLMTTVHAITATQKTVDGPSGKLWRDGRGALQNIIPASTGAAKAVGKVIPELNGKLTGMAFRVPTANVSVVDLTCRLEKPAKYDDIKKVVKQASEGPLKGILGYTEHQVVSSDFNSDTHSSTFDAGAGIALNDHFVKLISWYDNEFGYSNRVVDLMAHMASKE

Q: With “TC-GAPDH E138R, purified (from UniProt P04406) (enzyme)” as the substance, how does the binding read?
A: binds

— paper PMC12329532
